In publication PMC10679814, “Yeast lunapark regulates the formation of trans-Sey1p complexes for homotypic ER membrane fusion” (iScience, 2023) one finds binding data, which are given here for one molecule.

Assay [1] concerns the target Sey1p, as two differently tagged copies (Sey1p-myc and EGFP-Sey1p) in yeast ER microsomes (S. cerevisiae) (UniProt Q99287). The assay can be described thus: co-IP; cis-Sey1p complex assay: microsomes from a sey1Δ strain co-expressing Sey1p-myc and EGFP-Sey1p, solubilised, anti-myc IP with Protein A Sepharose, blot with anti-Sey1p; with or without LNP1.
For assay [2] the target is unchanged. The experiment in a line: co-IP; trans-Sey1p complex formation assay as a1, with 1 mM GTPγS.
The target is the same in assay [3]. The assay can be described thus: co-IP; trans-Sey1p complex formation assay: microsomes from BJ-Sey1p-myc and from BJ-EGFP-Sey1p mixed, 27°C, 10 mM Pipes-KOH pH 6.8, 125 mM KCl, 5 mM MgCl2, 200 mM sorbitol, with 1 mM GMP-PNP; pelleted, solubilised in 0.4% Triton X-100, anti-myc IP, blot with anti-GFP; microsomes of wild-type, lnp1Δ, LNP1-overexpressing or Lnp1p-3xHA variant strains.

Assay [4] shares this target. The assay can be described thus: co-IP; trans-Sey1p complex formation assay as a1, with 1 mM GTP.
Assay [5] shares this target. The experiment in a line: co-IP; trans-Sey1p complex formation assay as a1, without guanine nucleotide.
For assay [6] the target is unchanged. The experiment in a line: co-IP; trans-Sey1p complex formation assay as a1, with 1 mM GDP.
Assay [7] shares this target. The assay can be described thus: co-IP; trans-Sey1p complex formation assay as a1, with 1 mM GDP/AlF4-.
For assay [8] the target is unchanged. The assay can be described thus: co-IP; trans-Sey1p complex formation assay as a1, with 1 mM GDP. This is another data set of the same source.

These are yes or no findings as the source states them, for the method shown. In cells and extracts the contact can be indirect. Some binding calls cover weakened binding; strength is not graded here. Tags and fused reporters may be left off the sequences shown.

B1: Sey1p, as two differently tagged copies (Sey1p-myc and EGFP-Sey1p) in yeast ER microsomes (protein, UniProt Q99287 1-776)
chain: MADRPAIQLIDEEKEFHQSALQYFQQCIGNRDVGLDYHVISVFGSQSSGKSTLLNVLFNTNFDTMDAQVKRQQTTKGIWLAHTKQVNTTIEIDNDRPDIFVLDVEGSDGSERGEDQDFERKAALFAIAVSEVLIVNMWEQQIGLYQGNNMALLKTVFEVNLSLFGKNDNDHKVLLLFVIRDHVGVTPLSSLSDSVTRELEKIWTELSKPAGCEGSSLYDYFDLKFVGLAHKLLQEDKFTQDVKKLGDSFVMKGTENYYFKPQYHHRLPLDGWTMYAENCWDQIERNKDLDLPTQQILVARFKTEEISNEALEEFISKYDESIAPLKGNLGSLTSQLVKLKEECLTKYDEQASRYARNVYMEKREALNTKLNSHISGTINEFLESLMEKLWDDLKLEVSSRDKATTSFVESVAAGKSKIEKEFNESMETFKKLGLLISNEEITCKFSDDIEERIKQLRDAELKAKIGRIKKNLVPELKDHVIHLLSHPSKKVWDDIMNDFESTIKDNISAYQVEKDKYDFKIGLSESENAKIYKNIRILAWRTLDTTVHDYLKIDTIVSILRDRFEDVFRYDAEGSPRLWKTEEEIDGAFRVAKEHALEVFEVLSLAVTSDNVEIIPDVPMAEEESGEDNEIYRDNEGVFHSRRFAHILTELQKENVLDQFRRQINITVLDSKRSIITTRTHIPPWIYVLLAVLGWNEFVAVIRNPLFVTLTLILGATFFVIHKFGLWGPVVNVVQSAVGETRTAIKDKLRQFVVEDHEVKESFEMKDFSKNEQKEK
Consider B1, for which the binding entry in assay [1] is on record as “binds”; in assay [2], “no binding (condition: with 1 mM GTPγS)”; in assay [3] it was “binds”; in assay [4], “binds weakly”; in assay [5], “binds weakly”; in assay [6], “binds weakly”. For the same molecule, the binding result in assay [7] is given as “binds”; in assay [8], “no binding (condition: with 1 mM GDP)”.
